For one substance, difficulty met results are on record in patent US4713445A (priority 1983, dated 1987).

Strings that start with PEPTIDE1 are HELM notation: dots part the residues, brackets hold end groups and non-standard residues.

This data set can be described thus: general procedure: Boc solid-phase peptide synthesis. The conditions noted are these: whole synthesis.

As for PEPTIDE1{H.P.F.H.[LeuRLeu].V.Y}$$$$V2.0, the difficulty met entry was “lower incorporation of the isostere in the "L" case and less removal of the histidine with Na/NH3”.
